# Assay results: PMC4872746
# The chains behind the UniProt entries cited, without tags or fusion partners.
# UniProt P05412: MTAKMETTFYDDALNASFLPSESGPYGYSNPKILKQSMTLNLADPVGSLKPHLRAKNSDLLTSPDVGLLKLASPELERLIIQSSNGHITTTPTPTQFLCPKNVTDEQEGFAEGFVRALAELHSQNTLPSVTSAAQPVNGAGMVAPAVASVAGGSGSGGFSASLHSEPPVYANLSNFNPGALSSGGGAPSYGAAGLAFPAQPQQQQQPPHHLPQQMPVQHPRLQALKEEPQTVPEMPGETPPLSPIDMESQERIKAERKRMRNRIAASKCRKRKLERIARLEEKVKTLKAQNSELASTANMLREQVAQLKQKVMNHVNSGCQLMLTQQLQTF
# These are yes or no findings as the source states them, for the method shown. Binding seen in cells or lysates may run through a third protein. Some binding calls cover weakened binding; strength is not graded here. For some assays here: Where a sequence is shown, tags or fusion partners need not be part of it.
# Experiments:
# His-conjugated c-Jun = His-conjugated c-Jun (UniProt P05412); experiment: co-IP; HEK293 cells transfected with HA-TOPK and/or His-c-Jun; c-Jun immunoprecipitated with anti-His antibody, blot with anti-HA and anti-His; lysis buffer 1% Nonidet P-40, 50 mM HEPES pH 7.5
# [1] = target: endogenous c-Jun (human (endogenous in A549)) (UniProt P05412); experiment: co-IP; A549 cell lysates (2 mg) immunoprecipitated with anti-TOPK or anti-c-Jun antibodies, blot with anti-c-Jun or anti-TOPK; protein A-Sepharose 4B; lysis buffer 1% Nonidet P-40, 50 mM HEPES pH 7.5
binding (His-conjugated c-Jun),binding [1],Binder
binds,,"HA-tagged TOPK (T-lymphokine-activated killer cell-originated protein kinase) (enzyme, UniProt Q96KB5 1-322) MEGISNFKTPSKLSEKKKSVLCSTPTINIPASPFMQKLGFGTGVNVYLMKRSPRGLSHSPWAVKKINPICNDHYRSVYQKRLMDEAKILKSLHHPNIVGYRAFTEANDGSLCLAMEYGGEKSLNDLIEERYKASQDPFPAAIILKVALNMARGLKYLHQEKKLLHGDIKSSNVVIKGDFETIKICDVGVSLPLDENMTVTDPEACYIGTEPWKPKEAVEENGVITDKADIFAFGLTLWEMMTLSIPHINLSNDDDDEDKTFDESDFDDEAYYAALGTRPPINMEELDESYQKVIELFSVCTNEDPKDRPSAAHIVEALETDV"
,binds,"endogenous TOPK (T-lymphokine-activated killer cell-originated protein kinase) (enzyme, UniProt Q96KB5 1-322) MEGISNFKTPSKLSEKKKSVLCSTPTINIPASPFMQKLGFGTGVNVYLMKRSPRGLSHSPWAVKKINPICNDHYRSVYQKRLMDEAKILKSLHHPNIVGYRAFTEANDGSLCLAMEYGGEKSLNDLIEERYKASQDPFPAAIILKVALNMARGLKYLHQEKKLLHGDIKSSNVVIKGDFETIKICDVGVSLPLDENMTVTDPEACYIGTEPWKPKEAVEENGVITDKADIFAFGLTLWEMMTLSIPHINLSNDDDDEDKTFDESDFDDEAYYAALGTRPPINMEELDESYQKVIELFSVCTNEDPKDRPSAAHIVEALETDV"
